# Test results reported in the supplement of paper PMC8728848.
# The other results are listed elsewhere or left out.
# B1: Intelectin-1a (Mus musculus) (protein)
# chain: AEWSHPQFEKAEENLDTNRWGNSFFSSLPRSCKEIKQEHTKAQDGLYFLRTKNGVIYQTFCDMTTAGGGWTLVASVHENNMRGKCTVGDRWSSQQGNRADYPEGDGNWANYNTFGSAEAATSDDYKNPGYFDIQAENLGIWHVPNKSPLHNWRKSSLLRYRTFTGFLQHLGHNLFGLYKKYPVKYGEGKCWTDNGPALPVVYDFGDARKTASYYSPSGQREFTAGYVQFRVFNNERAASALCAGVRVTGCNTEHHCIGGGGFFPEGNPVQCGDFASFDWDGYGTHNGYSSSRKITEAAVLLFYR
# What was measured:
# Experiment in all cases: glycan array binding signal (z-score within array); higher = stronger binding
# Settings in all cases: glycan notation: IUPAC condensed, linker removed
# Fuc(a1-2)Gal = biological target: Fuc(a1-2)Gal
# How it was run: (§1)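 From the Consortium for Functional Glycomics database, 3228 arrays were curated, keeping only those whose protein sequence was available. Binding is given as a within-array Z-score averaged across arrays sharing a protein sequence and across linkers. Negative Z-scores can be read as non-binding.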
# Fuc(a1-2)Gal(b1-3)GalNAc = biological target: Fuc(a1-2)Gal(b1-3)GalNAc
# How it was run: as §1
# [1] = biological target: Fuc(a1-2)Gal(b1-3)GalNAc(a1-3)[Fuc(a1-2)]Gal(b1-4)Glc
# How it was run: as §1
# [2] = biological target: Fuc(a1-2)Gal(b1-3)GalNAc(a1-3)[Fuc(a1-2)]Gal(b1-4)GlcNAc
# How it was run: as §1
# [3] = biological target: Fuc(a1-2)Gal(b1-3)GalNAc(b1-3)Gal
# How it was run: as §1
# [4] = biological target: Fuc(a1-2)Gal(b1-3)GalNAc(b1-3)Gal(a1-4)Gal(b1-4)Glc
# How it was run: as §1
# [5] = biological target: Fuc(a1-2)Gal(b1-3)GalNAc(b1-4)[Neu5Ac(a2-3)]Gal(b1-4)Glc
# How it was run: as §1
# Fuc(a1-2)Gal(b1-3)GlcNAc = biological target: Fuc(a1-2)Gal(b1-3)GlcNAc
# How it was run: as §1
# [6] = biological target: Fuc(a1-2)Gal(b1-3)GlcNAc(b1-2)Man(a1-3)[Fuc(a1-2)Gal(b1-3)GlcNAc(b1-2)Man(a1-6)]Man(b1-4)GlcNAc(b1-4)GlcNAc
# How it was run: as §1
# [7] = biological target: Fuc(a1-2)Gal(b1-3)GlcNAc(b1-2)Man(a1-3)[Fuc(a1-2)Gal(b1-3)GlcNAc(b1-2)Man(a1-6)]Man(b1-4)GlcNAc(b1-4)[Fuc(a1-6)]GlcNAc
# How it was run: as §1
# [8] = biological target: Fuc(a1-2)Gal(b1-3)GlcNAc(b1-3)Gal(b1-4)Glc
# How it was run: as §1
# [9] = biological target: Fuc(a1-2)Gal(b1-3)GlcNAc(b1-3)GalNAc
# How it was run: as §1
# [10] = biological target: Fuc(a1-2)Gal(b1-3)GlcNAc(b1-3)[Fuc(a1-2)Gal(b1-3)GlcNAc(b1-6)]GalNAc
# How it was run: as §1
# [11] = biological target: Fuc(a1-2)Gal(b1-3)GlcNAc(b1-3)[Fuc(a1-3)[Gal(b1-4)]GlcNAc(b1-6)]Gal(b1-4)Glc
# How it was run: as §1
# [12] = biological target: Fuc(a1-2)Gal(b1-3)GlcNAc(b1-3)[Gal(b1-4)GlcNAc(b1-6)]Gal(b1-4)Glc
# How it was run: as §1
# [13] = biological target: Fuc(a1-2)Gal(b1-3)GlcNAc(b1-3)[Neu5Ac(a2-6)Gal(b1-4)GlcNAc(b1-6)]Gal(b1-4)Glc
# How it was run: as §1
# [14] = biological target: Fuc(a1-2)Gal(b1-3)GlcNAc6S
# How it was run: as §1
# [15] = biological target: Fuc(a1-2)Gal(b1-3)[Fuc(a1-4)]GlcNAc
# How it was run: as §1
# [16] = biological target: Fuc(a1-2)Gal(b1-3)[Fuc(a1-4)]GlcNAc(b1-2)Man(a1-3)[Fuc(a1-2)Gal(b1-3)[Fuc(a1-4)]GlcNAc(b1-2)Man(a1-6)]Man(b1-4)GlcNAc(b1-4)GlcNAc
# How it was run: as §1
# [17] = biological target: Fuc(a1-2)Gal(b1-3)[Fuc(a1-4)]GlcNAc(b1-2)Man(a1-6)[Fuc(a1-2)Gal(b1-3)[Fuc(a1-4)]GlcNAc(b1-2)Man(a1-3)]Man(b1-4)GlcNAc(b1-4)[Fuc(a1-6)]GlcNAc
# How it was run: as §1
# [18] = biological target: Fuc(a1-2)Gal(b1-3)[Fuc(a1-4)]GlcNAc(b1-3)[Fuc(a1-3)[Gal(b1-4)]GlcNAc(b1-6)]Gal(b1-4)Glc
# How it was run: as §1
# [19] = biological target: Fuc(a1-2)Gal(b1-3)[Fuc(a1-4)]GlcNAc(b1-3)[Gal(b1-4)GlcNAc(b1-6)]Gal(b1-4)Glc
# How it was run: as §1
# Fuc(a1-2)Gal(b1-4)Glc = biological target: Fuc(a1-2)Gal(b1-4)Glc
# How it was run: as §1
# Fuc(a1-2)Gal(b1-4)Glc6S = biological target: Fuc(a1-2)Gal(b1-4)Glc6S
# How it was run: as §1
# Fuc(a1-2)Gal(b1-4)GlcNAc = biological target: Fuc(a1-2)Gal(b1-4)GlcNAc
# How it was run: as §1
# [20] = biological target: Fuc(a1-2)Gal(b1-4)GlcNAc(b1-2)Man
# How it was run: as §1
# [21] = biological target: Fuc(a1-2)Gal(b1-4)GlcNAc(b1-2)Man(a1-3)[Fuc(a1-2)Gal(b1-4)GlcNAc(b1-2)Man(a1-6)]Man(b1-4)GlcNAc(b1-4)GlcNAc
# How it was run: as §1
# [22] = biological target: Fuc(a1-2)Gal(b1-4)GlcNAc(b1-2)Man(a1-3)[Fuc(a1-2)Gal(b1-4)GlcNAc(b1-2)Man(a1-6)]Man(b1-4)GlcNAc(b1-4)[Fuc(a1-6)]GlcNAc
# How it was run: as §1
# [23] = biological target: Fuc(a1-2)Gal(b1-4)GlcNAc(b1-2)[Fuc(a1-2)Gal(b1-4)GlcNAc(b1-4)]Man(a1-3)[Fuc(a1-2)Gal(b1-4)GlcNAc(b1-2)Man(a1-6)]Man(b1-4)GlcNAc(b1-4)GlcNAc
# How it was run: as §1
# [24] = biological target: Fuc(a1-2)Gal(b1-4)GlcNAc(b1-3)Gal(b1-4)GlcNAc
# How it was run: as §1
# [25] = biological target: Fuc(a1-2)Gal(b1-4)GlcNAc(b1-3)Gal(b1-4)GlcNAc(b1-3)Gal(b1-4)GlcNAc
# How it was run: as §1
# [26] = biological target: Fuc(a1-2)Gal(b1-4)GlcNAc(b1-3)GalNAc
# How it was run: as §1
# [27] = biological target: Fuc(a1-2)Gal(b1-4)GlcNAc(b1-3)[Fuc(a1-2)Gal(b1-4)GlcNAc(b1-6)]GalNAc
# How it was run: as §1
# [28] = biological target: Fuc(a1-2)Gal(b1-4)GlcNAc(b1-6)GalNAc
# How it was run: as §1
# [29] = biological target: Fuc(a1-2)Gal(b1-4)GlcNAc6S
# How it was run: as §1
# [30] = biological target: Fuc(a1-2)Gal(b1-4)[Fuc(a1-3)]GlcNAc
# How it was run: as §1
# [31] = biological target: Fuc(a1-2)Gal(b1-4)[Fuc(a1-3)]GlcNAc(b1-2)Man(a1-3)[Fuc(a1-2)Gal(b1-4)[Fuc(a1-3)]GlcNAc(b1-2)Man(a1-6)]Man(b1-4)GlcNAc(b1-4)GlcNAc
# How it was run: as §1
# [32] = biological target: Fuc(a1-2)Gal(b1-4)[Fuc(a1-3)]GlcNAc(b1-2)Man(a1-6)[Fuc(a1-2)Gal(b1-4)[Fuc(a1-3)]GlcNAc(b1-2)Man(a1-3)]Man(b1-4)GlcNAc(b1-4)[Fuc(a1-6)]GlcNAc
# How it was run: as §1
# [33] = biological target: Fuc(a1-2)Gal(b1-4)[Fuc(a1-3)]GlcNAc(b1-2)[Fuc(a1-2)Gal(b1-4)[Fuc(a1-3)]GlcNAc(b1-4)]Man(a1-3)[Fuc(a1-2)Gal(b1-4)[Fuc(a1-3)]GlcNAc(b1-2)Man(a1-6)]Man(b1-4)GlcNAc(b1-4)GlcNAc
# How it was run: as §1
# [34] = biological target: Fuc(a1-2)Gal(b1-4)[Fuc(a1-3)]GlcNAc(b1-3)Gal(b1-4)[Fuc(a1-3)]GlcNAc
# How it was run: as §1
# [35] = biological target: Fuc(a1-2)Gal(b1-4)[Fuc(a1-3)]GlcNAc(b1-3)Gal(b1-4)[Fuc(a1-3)]GlcNAc(b1-3)Gal(b1-4)[Fuc(a1-3)]GlcNAc
# How it was run: as §1
# [36] = biological target: Fuc(a1-2)Gal(b1-4)[Fuc(a1-3)]GlcNAc(b1-3)GalNAc
# How it was run: as §1
# [37] = biological target: Fuc(a1-2)Gal(b1-4)[Fuc(a1-3)]GlcNAc(b1-3)[Neu5Ac(a2-6)Gal(b1-4)GlcNAc(b1-6)]Gal(b1-4)Glc
# How it was run: as §1
# [38] = biological target: Fuc(a1-2)Gal6S(b1-3)GlcNAc
# How it was run: as §1
# [39] = biological target: Fuc(a1-2)Gal6S(b1-3)GlcNAc6S
# How it was run: as §1
binder,measurement,setting,value
B1,glycan array binding signal (z-score),Fuc(a1-2)Gal,1.16
same,glycan array binding signal (z-score),Fuc(a1-2)Gal(b1-3)GalNAc,-0.164
same,glycan array binding signal (z-score),[1],-0.541
same,glycan array binding signal (z-score),[2],1.56
same,glycan array binding signal (z-score),[3],-0.52
same,glycan array binding signal (z-score),[4],-0.523
same,glycan array binding signal (z-score),[5],-0.417
same,glycan array binding signal (z-score),Fuc(a1-2)Gal(b1-3)GlcNAc,-0.677
same,glycan array binding signal (z-score),[6],-0.541
same,glycan array binding signal (z-score),[7],-0.492
same,glycan array binding signal (z-score),[8],-0.806
same,glycan array binding signal (z-score),[9],2.92
same,glycan array binding signal (z-score),[10],-0.329
same,glycan array binding signal (z-score),[11],-0.544
same,glycan array binding signal (z-score),[12],-0.885
same,glycan array binding signal (z-score),[13],-0.683
same,glycan array binding signal (z-score),[14],0.871
same,glycan array binding signal (z-score),[15],0.218
same,glycan array binding signal (z-score),[16],2.9
same,glycan array binding signal (z-score),[17],0.304
same,glycan array binding signal (z-score),[18],1.02
same,glycan array binding signal (z-score),[19],0.035
same,glycan array binding signal (z-score),Fuc(a1-2)Gal(b1-4)Glc,-0.881
same,glycan array binding signal (z-score),Fuc(a1-2)Gal(b1-4)Glc6S,0.116
same,glycan array binding signal (z-score),Fuc(a1-2)Gal(b1-4)GlcNAc,0.167
same,glycan array binding signal (z-score),[20],1.06
same,glycan array binding signal (z-score),[21],-0.329
same,glycan array binding signal (z-score),[22],-0.624
same,glycan array binding signal (z-score),[23],-0.206
same,glycan array binding signal (z-score),[24],-0.367
same,glycan array binding signal (z-score),[25],0.884
same,glycan array binding signal (z-score),[26],0.697
same,glycan array binding signal (z-score),[27],-0.517
same,glycan array binding signal (z-score),[28],-0.016
same,glycan array binding signal (z-score),[29],-0.569
same,glycan array binding signal (z-score),[30],-0.845
same,glycan array binding signal (z-score),[31],2.41
same,glycan array binding signal (z-score),[32],0.566
same,glycan array binding signal (z-score),[33],-0.244
same,glycan array binding signal (z-score),[34],-1.05
same,glycan array binding signal (z-score),[35],-0.438
same,glycan array binding signal (z-score),[36],2.14
same,glycan array binding signal (z-score),[37],-0.366
same,glycan array binding signal (z-score),[38],0.386
same,glycan array binding signal (z-score),[39],0.764
